# Measurements reported in PubChem BioAssay AID504764 (Drosophila RNAi Screening Center, 2011).
# Screen: 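Genes whose knock-down alters Notch-dependent transcription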 (primary screen)
# System: Drosophila Kc167 cells
# Reagent: long dsRNA against Drosophila genes
# Duration: about 5 days (4 days dsRNA, then 24 h after transfection)
# Conditions: transfection of constitutively active membrane-tethered Notch lacking the extracellular domain, read 24 h later
# Measured: 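Light from a Notch-responsive E(spl)m3 luciferase reporter under active Notch, with control-promoter and no-Notch reporter wells to normalise; raw counts from paired wells a and b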
# Reading the numbers: induced reporter light, run 1, well a and induced reporter light, run 1, well b: higher = more light from the Notch target reporter with active Notch; control promoter light, run 1, well a and control promoter light, run 1, well b: higher = more light from the viral control promoter (cell number, transfection, viability); uninduced reporter light, run 1, well a: higher = more light from the Notch target reporter without active Notch
# Rule for the call: 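Hit if the duplicate-averaged log2 ratio of induced to control-promoter light gives a plate-wise z beyond ±2, or induced to uninduced beyond ±1.8; weak-control or discordant-duplicate wells dropped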
# Calls: active = modifier hit (raised or lowered Notch signal); inactive = not a hit
# The screen tested about 22,000 reagents; below is an unselected part of those with a known target gene and a result. Of all reagents, 403 (1.9%) were called active. 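Unnormalised raw counts per well; ratio z-scores behind the hit calls and whether each hit raises or lowers signal are not deposited.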 Reagent sequences are not shown. Not given: the amount of reagent.
Target gene,dsRNA,"induced reporter light, run 1, well a","induced reporter light, run 1, well b","control promoter light, run 1, well a","control promoter light, run 1, well b","uninduced reporter light, run 1, well a",call
Tango5,DRSC18023,1.84e5,1.49e5,2.44e5,2.19e5,11800,inactive
CG3505,DRSC15489,1.11e5,95920,83165,58290,9365,inactive
Rpt1,DRSC07542,42495,42490,38730,36190,4535,inactive
CG45002,DRSC20144,56860,66890,71115,53305,9895,inactive
Tsp42Ee,DRSC05947,1.58e5,1.71e5,2.34e5,1.96e5,13955,inactive
Paris,DRSC00451,91965,1.75e5,2.13e5,2.47e5,14875,inactive
Surf4,DRSC16875,2.18e5,2.07e5,1.99e5,1.62e5,20700,inactive
Cpr49Ac,DRSC07199,94495,87580,60990,76090,6205,inactive
CG13230,DRSC06350,1.38e5,1.28e5,2.05e5,2.15e5,15480,inactive
CR18275,DRSC18151,1.46e5,1.36e5,2.73e5,2.29e5,11430,inactive
mip40,DRSC06541,72140,87355,1.35e5,1.74e5,7230,inactive
Ing3,DRSC20002,1.42e5,1.64e5,1.41e5,90230,12320,inactive
CG7785,DRSC16311,1.56e5,1.76e5,1.91e5,1.91e5,12538,inactive
saturn,DRSC09303,1.48e5,1.25e5,1.98e5,2.30e5,11255,inactive
CG14852,DRSC14976,1.58e5,1.28e5,94380,93940,13595,inactive
elfless,DRSC02451,1.14e5,1.47e5,1.32e5,1.27e5,10445,inactive
CG4119,DRSC17741,1.47e5,1.07e5,1.63e5,1.69e5,9810,inactive
Tdrd3,DRSC10016,1.85e5,1.46e5,2.46e5,1.60e5,6105,inactive
Rrp45,DRSC20198,24590,17070,16110,14980,1895,inactive
CG11898,DRSC14432,1.21e5,1.28e5,1.48e5,1.43e5,9660,inactive

No new results follow: entries from further up.
Target gene,dsRNA,"induced reporter light, run 1, well a","induced reporter light, run 1, well b","control promoter light, run 1, well a","control promoter light, run 1, well b","uninduced reporter light, run 1, well a",call
Tango5,DRSC18023,1.84e5,1.49e5,2.44e5,2.19e5,11800,inactive
CG3505,DRSC15489,1.11e5,95920,83165,58290,9365,inactive
